Test system: SCC-4 cells
Assay: Co-localisation of compounds with organelle co-stains (fluorescence microscopy, Pearson's Coefficient)
Type: cell-based
Settings: 1 hour
Method: SCC-4 cells were seeded at 50,000 cells per well on 8-well chamber slides and the following day were treated with 1 pM compound of interest for 1 hour before either fixation with 4% paraformaldehyde (PFA) or a media change to Live Cell Imaging solution. Co-stains (e.g. MitoTracker, Bodipy ER Tracker or LipidSpot 610) were applied for 30 minutes before imaging on a Zeiss LSCM 880.
SCC-4 cells were seeded at 50,000 cells/well on 8-well chamber slides. The following day, cells were treated with 1 μM compound 101 and 1 μM compound 93 for 1 hour. Cells were changed to live cell imaging solution media. Co-stains (MitoTracker, Bodipy ER Tracker, LipidSpot 610 or LysoTracker) were added to cells 30 minutes before imaging. Imaging was carried out using a Zeiss LSCM 880 and image analysis was performed on ImageJ.

[1] = co-stain LipidSpot 610, 1 μM compound
[2] = co-stain LysoTracker, 1 μM compound
[3] = co-stain MitoTracker, 1 μM compound

COCCOCCOCCOC(=O)/C=C/c1ccc(C#Cc2ccc(N(C)CCCCCNC(=O)CCCCCCC(=O)NOC(C)=O)cc2)s1 [compound 101, 2-[2-(2-Methoxyethoxy)ethoxy]ethyl(2E)-3-[5-(2-{4-[(5-{7-[(acetyloxy)carbamoyl]heptanamido}pentyl)(methyl)amino]phenyl}ethynyl)thiophen-2-yl]prop-2-enoate]
Pearson's R Value (above threshold) [1]: 0.08 | Pearson's R Value (no threshold) [1]: 0.30 | Pearson's R Value (above threshold) [2]: 0.54 | Pearson's R Value (no threshold) [2]: 0.64 | Pearson's R Value (above threshold) [3]: 0.30 +/− 0.11 | Pearson's R Value (no threshold) [3]: 0.55 +/− 0.04
